Experimental findings from PMC7414696 are described below.

For assay [1], the target named is Endogenously expressed CAPZB2 of PC-3 cells (human (endogenous in PC-3)) (UniProt P47756). In words: proximity ligation; PC-3 cells on coverslips, transiently co-transfected or left untransfected, fixed with 4% PFA, permeabilized; Duolink In Situ Orange Starter Kit Mouse/Rabbit.
Assay [2] concerns the target Flag-tagged mouse Capzb2 expressed in PC-3 cells (mouse) (UniProt P47757). In words: co-IP; PC-3 cells co-transfected with pcDNA-PIM1, His-Capza1 and Flag-Capzb2 in different combinations, lysed after 48 h (50 mM Tris pH 7.5, 100 mM NaCl, 1% NP-40, 10% glycerol, 1 mM EDTA); Flag-tagged protein precipitated with anti-Flag M2 agarose, 1 h at +4 °C, four washes; Western blotting.

Assay [3] has the same target. In words: proximity ligation; PC-3 cells on coverslips, transiently co-transfected or left untransfected, fixed with 4% PFA, permeabilized; Duolink In Situ Orange Starter Kit Mouse/Rabbit.
The target in assay [4] is His-tagged human capping protein alpha 2 subunit (CAPZA2), bacterially produced (human) (UniProt P47755). In words: pull-down; alpha and beta subunits co-expressed in E. coli BL21 from one Duet vector; lysate (50 mM Tris-HCl pH 7.5, 250 mM NaCl, 10 mM imidazole) rotated 30 min at +4 °C with HisLink resin, washed four times, eluted with 300 mM imidazole; SDS-PAGE with Page Blue staining.

Assay [5] addresses GFP-tagged mouse Capzb2 expressed in PC-3 cells (mouse) (UniProt P47757). In words: FRET or BRET; fluorescence-lifetime imaging microscopy (FLIM) of fixed PC-3 cells co-overexpressing GFP-Capzb2 (alone or with His-Capza1) and PIM1-RFP; lifetime of GFP fluorescence; room temperature.

No constants are given. Whether binding was seen depends on the method and setting. In cells and extracts the contact can be indirect. Some results given as binding are weak or reduced against the parent protein; the word gives no strength.

On to “Endogenously expressed PIM1 of PC-3 cells (from UniProt P11309 1-313) (enzyme)”, for which, in assay [1], the binding entry is “binds”.

In the case of “Human PIM1 expressed in PC-3 cells from pcDNA3.1/PIM1-V5-His (from UniProt P11309 1-313) (enzyme)”, the binding result in assay [2] and in assay [3] was “binds” in each case.

With “Mouse capping protein beta 2 subunit (Capzb2), bacterially produced (from UniProt P47757-2 1-272)”, the binding entry in assay [4] is listed as “binds”.

Regarding “RFP-tagged human PIM1 (Tag-PIM1-RFP) expressed in PC-3 cells (from UniProt P11309 1-313) (enzyme)”, in assay [5], the binding entry is listed as “binds”.
